Source: doi:10.1101/2022.03.21.484600
These are yes or no findings as the source states them, for the method shown. Some binding calls cover weakened binding; strength is not graded here. For some assays here: Sequences can lack the tags named with a protein.

Experiments:
[1] = biological target: GFP-tagged wild-type Cdc19 expressed in yeast (S. cerevisiae) (UniProt P00549); assay: semi-denaturing detergent agarose gel electrophoresis
[2] = biological target: Cdc19 amyloid core peptide, wild type (amino acids 376-392) (S. cerevisiae); assay: fibril formation seen by negative staining TEM

| binding [1] | binding [2] | Binder |
| --- | --- | --- |
| binds |  | GFP-tagged wild-type Cdc19 expressed in yeast (enzyme, UniProt P00549 1-500) MSRLERLTSLNVVAGSDLRRTSIIGTIGPKTNNPETLVALRKAGLNIVRMNFSHGSYEYHKSVIDNARKSEELYPGRPLAIALDTKGPEIRTGTTTNDVDYPIPPNHEMIFTTDDKYAKACDDKIMYVDYKNITKVISAGRIIYVDDGVLSFQVLEVVDDKTLKVKALNAGKICSHKGVNLPGTDVDLPALSEKDKEDLRFGVKNGVHMVFASFIRTANDVLTIREVLGEQGKDVKIIVKIENQQGVNNFDEILKVTDGVMVARGDLGIEIPAPEVLAVQKKLIAKSNLAGKPVICATQMLESMTYNPRPTRAEVSDVGNAILDGADCVMLSGETAKGNYPINAVTTMAETAVIAEQAIAYLPNYDDMRNCTPKPTSTTETVAASAVAAVFEQKAKAIIVLSTSGTTPRLVSKYRPNCPIILVTRCPRAARFSHLYRGVFPFVFEKEPVSDWTDDVEARINFGIEKAKEFGILKKGDTYVSIQGFKAGAGHSNTLQVSTV |
|  | no binding (condition: at pH 7.4) | TSTTETVAASAVAAVFE [Cdc19 amyloid core peptide, wild type (amino acids 376-392)] |
